The values that follow come from PubChem BioAssay AID186 (DTP/NCI, 2004).

The test system of this assay is B6D2F1 mice, nontumored toxicity test, survival. Briefly: NCI In Vivo Anticancer Drug Screen. Data for tumor model Nontumored Animals (Toxicity Test) in B6D2F1 (BDF1) mice.

The mice bore no tumour; each value counts animals alive of those treated. Survivors were counted at the toxicity check, usually on the fifth day, unless a day is given; later deaths do not show. Schedules are NCI's codes, read here as Q, the interval in days (D) or hours (H), X, the number of doses.

In the case of `O=C1C(=O)c2ccccc2C(O)=C1CC=C(Cl)Cl`, the survivor count is given as 10 of 10 (dose: 10.0 mg/kg/injection, schedule: Q01DX009 (ip), vehicle: alkali diluted with water); 10 of 10 (dose: 20.0 mg/kg/injection, schedule: Q01DX009 (ip), vehicle: alkali diluted with water); 10 of 10 (dose: 30.0 mg/kg/injection, schedule: Q01DX009 (ip), vehicle: alkali diluted with water); 10 of 10 (dose: 40.0 mg/kg/injection, schedule: Q01DX009 (ip), vehicle: alkali diluted with water); 10 of 10 (dose: 50.0 mg/kg/injection, schedule: Q01DX009 (ip), vehicle: alkali diluted with water).
On to `Nc1nc(Cl)nc2c1ncn2C1CC(O)C(CO)O1` (stereo not given), for which the survivor count is 6 of 6 (dose: 16.0 mg/kg/injection, schedule: Q01DX012 (ip), vehicle: other); 6 of 6 (dose: 32.0 mg/kg/injection, schedule: Q01DX012 (ip), vehicle: other); 2 of 6 (dose: 64.0 mg/kg/injection, schedule: Q01DX012 (ip), vehicle: other); 0 of 6 (dose: 128.0 mg/kg/injection, schedule: Q01DX012 (ip), vehicle: other).
Consider `COc1cc([C@@H]2c3cc4c(cc3[C@@H](OC3OC5COC(C)OC5C(O)C3O)[C@H]3COC(=O)[C@H]23)OCO4)cc(OC)c1O` (stereo not given in full), for which the survivor count is, setting by setting: (dose: 1.73 mg/kg/injection, schedule: Q01DX009 (ip), vehicle: clinical formulation) 5 of 5; (dose: 2.88 mg/kg/injection, schedule: Q01DX009 (ip), vehicle: clinical formulation) 5 of 5; (dose: 4.0 mg/kg/injection, schedule: Q01DX009 (oral), vehicle: Klucel (hydroxypropylcellulose) (HPC)) 8 of 8; (dose: 4.0 mg/kg/injection, schedule: Q03HX016 (oral), vehicle: Klucel (hydroxypropylcellulose) (HPC)) 8 of 8; (dose: 4.8 mg/kg/injection, schedule: Q01DX009 (ip), vehicle: clinical formulation) 5 of 5; (dose: 8.0 mg/kg/injection, schedule: Q01DX009 (ip), vehicle: clinical formulation) 5 of 5. In addition, the survivor count is 8 of 8 (dose: 8.0 mg/kg/injection, schedule: Q01DX009 (oral), vehicle: Klucel (hydroxypropylcellulose) (HPC)); 8 of 8 (dose: 8.0 mg/kg/injection, schedule: Q03HX016 (oral), vehicle: Klucel (hydroxypropylcellulose) (HPC)); 4 of 4 (dose: 8.0 mg/kg/injection, schedule: Q04DX003 (ip), vehicle: saline); 4 of 4 (dose: 8.0 mg/kg/injection, schedule: Q04DX003 (ip), vehicle: suspension in saline); 5 of 5 (dose: 13.3 mg/kg/injection, schedule: Q01DX009 (ip), vehicle: clinical formulation); 8 of 8 (dose: 16.0 mg/kg/injection, schedule: Q01DX009 (oral), vehicle: Klucel (hydroxypropylcellulose) (HPC)). The survivor count was 7 of 8 (dose: 16.0 mg/kg/injection, schedule: Q03HX016 (oral), vehicle: Klucel (hydroxypropylcellulose) (HPC)); 4 of 4 (dose: 16.0 mg/kg/injection, schedule: Q04DX003 (ip), vehicle: saline); 4 of 4 (dose: 16.0 mg/kg/injection, schedule: Q04DX003 (ip), vehicle: suspension in saline); 8 of 8 (dose: 32.0 mg/kg/injection, schedule: Q01DX009 (oral), vehicle: Klucel (hydroxypropylcellulose) (HPC)); 8 of 8 (dose: 32.0 mg/kg/injection, schedule: Q03HX016 (oral), vehicle: Klucel (hydroxypropylcellulose) (HPC)); 2 of 3 (dose: 32.0 mg/kg/injection, schedule: Q04DX003 (ip), vehicle: saline). The survivor count is recorded as 4 of 4 (dose: 32.0 mg/kg/injection, schedule: Q04DX003 (ip), vehicle: suspension in saline); 8 of 8 (dose: 32.0 mg/kg/injection, schedule: Q04DX003 (oral), vehicle: Klucel (hydroxypropylcellulose) (HPC)); 8 of 8 (dose: 64.0 mg/kg/injection, schedule: Q01DX009 (oral), vehicle: Klucel (hydroxypropylcellulose) (HPC)); 8 of 8 (dose: 64.0 mg/kg/injection, schedule: Q03HX016 (oral), vehicle: Klucel (hydroxypropylcellulose) (HPC)); 4 of 4 (dose: 64.0 mg/kg/injection, schedule: Q04DX003 (ip), vehicle: saline); 2 of 3 (dose: 64.0 mg/kg/injection, schedule: Q04DX003 (ip), vehicle: suspension in saline). The survivor count by setting is: (dose: 64.0 mg/kg/injection, schedule: Q04DX003 (oral), vehicle: Klucel (hydroxypropylcellulose) (HPC)) 8 of 8; (dose: 128.0 mg/kg/injection, schedule: Q01DX009 (oral), vehicle: Klucel (hydroxypropylcellulose) (HPC)) 7 of 8; (dose: 128.0 mg/kg/injection, schedule: Q03HX016 (oral), vehicle: Klucel (hydroxypropylcellulose) (HPC)) 8 of 8; (dose: 128.0 mg/kg/injection, schedule: Q04DX003 (oral), vehicle: Klucel (hydroxypropylcellulose) (HPC)) 8 of 8; (dose: 256.0 mg/kg/injection, schedule: Q04DX003 (oral), vehicle: Klucel (hydroxypropylcellulose) (HPC)) 8 of 8; (dose: 512.0 mg/kg/injection, schedule: Q04DX003 (oral), vehicle: Klucel (hydroxypropylcellulose) (HPC)) 8 of 8. Moreover, under “dose: 1024.0 mg/kg/injection, schedule: Q04DX003 (oral), vehicle: Klucel (hydroxypropylcellulose) (HPC)”, the survivor count is 8 of 8.
